Experimental data as given in patent publication US20260242365A1, “USES OF CERTAIN 1,4-OXAZEPANE-2-CARBOXAMIDES AS DPP1 INHIBITORS” (Insmed Incorporated, priority 2023, published 2026).
Some entries share one result that the patent states for a list of compounds.

How the values were obtained:
[1] = tested on: Neutrophil elastase (NE); assay: Neutrophil elastase activity in lysates of mouse bone marrow progenitor cells differentiated into neutrophils under DPP1 inhibitor; format: cell-based
Protocol: (§1) Male or female C57BL/6 mice at the age of 8-14 weeks were used.
(§2) The two femurs and two tibias were removed out of a single mouse and gauze was used to remove the muscles and residue tissues. A sterile environment for surgical instruments and surgical sites is maintained. The bones were put into one 15-mL tube with cold sterile RPMI medium and placed on ice until further processing is performed.
(§3) A fresh 50-mL tube is placed on ice and a fresh 40/70 μm cell strainer (CLS431750, Sigma) is inserted into the top of the Falcon tube. Both ends of two femurs and two tibias are cut with bone cutters and flush bone marrow of all bones from one single mouse are placed into the cell strainer. 5-mL of ice-cold RPMI (RPMI medium containing 10 mM HEPES, pH 7.4) was used for each femur or tibia using a blunt needle (25 G needle), totaling about 20 mL per tube.
(§4) The cell suspension is centrifuged at 600×g for 5 min at 4° C. and the supernatant is carefully discarded. […]
(§5) The cell pellet is resuspended with 2 mL ice-cold complete IMDM medium and the cells are counted. The cells are then ready for neutrophil differentiation. […]
(§6) Cells are checked each day for expansion and maintaining a final concentration between 2-10×10^5 cells/ml. On day 3, cells are counted. […]
(§7) On day 5, cells are counted. […] On day 7, cells are counted. […]

[2] = tested on: cathepsin G (CatG); assay: CatG activity in lysates of mouse bone marrow progenitor cells differentiated into neutrophils under DPP1 inhibitor; format: cell-based
Protocol: as §1, §2, §3, §4, §5, §6, §7

COC1CNC[C@@H](C(=O)N[C@H](C#N)Cc2ccc(-c3ccc4oc(=O)n(C)c4c3)cc2)OC1 (single isomer, unassigned) [INSM-203, (2S,6R*)—N-[(1S)-1-cyano-2-[4-(3-methyl-2-oxo-2,3-dihydro-1,3-benzoxazol-5-yl)phenyl]ethyl]-6-methoxy-1,4-oxazepane-2-carboxamide] was tested, and the “concentration by which NE inhibition plateau is reached” value [1] was at most 0.02 µM and the “concentration by which CatG inhibition plateau is reached” value [2] was at most 0.02 µM.

In the case of COC1CNC[C@@H](C(=O)N[C@H](C#N)Cc2ccc(-c3ccc4oc(=O)n(C)c4c3)cc2)OC1 (mixture of isomers) [INSM-202, (6-rac)-(2S)—N-[(1S)-1-cyano-2-[4-(3-methyl-2-oxo-2,3-dihydro-1,3-benzoxazol-5-yl)phenyl]ethyl]-6-methoxy-1,4-oxazepane-2-carboxamide], the “concentration by which NE inhibition plateau is reached” value [1] is reported as at most 0.02 µM and the “concentration by which CatG inhibition plateau is reached” value [2] is reported as at most 0.02 µM.
